Measured values reported in patent publication US20060241019A1 (priority 2003, published 2006).

Assay: peptide synthesis
Settings: for conjugation yield: conjugation step

Substance | conjugation yield [%] | step yield (late stage modification step) [%]
(Phe B1)-MPA(AEES)2-Insulin | 43.7 | 
(Lys B29)-MPA(OA)-Insulin |  | 31
(Lys B29)-MPA(AEES)2-Insulin | 25.9 | 
